# Results of single-concentration screens

From ChEMBL document CHEMBL3988442, “University of Dundee, Small-Polar-MMV Screening Library” (2021).

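Phenotypic screen: M. tuberculosis growth, glucose 7H9 medium, 3 days; the read-out is not stated. Tested at 50 µM. Higher reads as more growth inhibition (inferred: compounds with an IC50 in retests scored well above the rest). Size under these conditions: about 69,000 compounds, about 760 of them at 50% or above in at least one test.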

The filed quantity is “Percent Effect” (%).
The controls that fix the scale are not given in the record; negative values are as filed.
Compounds were drawn at random from those tested, without regard to their results.
Two or more numbers in one place are separate tests of the same structure; such repeats can differ widely.

compound | percent effect
CCOc1ncccc1-c1cc2c(cc1C(N)=O)OCO2 | -1.19% and -20.85%
COc1ccc(C2=CCN(C(=O)CN(C)CC(N)=O)CC2)cc1 | 5.65%
CS(=O)(=O)c1ccc(Cl)c(C(=O)NCCC2=CCCCC2)c1 | -57.15%
CN1CCCN(c2ncnc(N3CCOCC3)c2N)CC1 | -9.396%
O=C(O)C(F)(F)F.[H][C@]12CCC[C@@]1(COCc1ccccn1)CN(S(=O)(=O)N(C)C)C2 | -18.43% and -7.423%
CC1(C)CNC(=O)c2nc(C3CCN(C(=O)C4CC4)CC3)[nH]c2C1 | 22.27%
COc1ccc(N2Cc3nc(=O)n(C(C)C)n3C2=O)cc1 | -13.18%
Cc1ccc(CN(Cc2ccccn2)C2CC(C)(C)NC(C)(C)C2)s1.O=C(O)CC(O)(CC(=O)O)C(=O)O | 2.068%
Cn1c(CN2CCCC(N3CCNC3=O)C2)cc(=O)n(C)c1=O (stereo not given) | 3.081%
Fc1ccc(OC2CCN(Cc3nnc(-c4ccco4)o3)CC2)cc1 | 7.472% and 24.1%
Cn1ccnc1C1CCN(S(=O)(=O)c2ccc3oc(=O)[nH]c3c2)CC1 | -18.55%
O=C(O)C(F)(F)F.[H][C@@]12C[C@@H](Oc3cccc(F)c3)CN1CCN(C(=O)c1ccnnc1)C2 | -19.32%
CNC(=O)[C@@H](C1CCCCC1)N1CCC[C@H]1C(=O)N(C)CCN(C)C.Cl.Cl | -26.46% and -5.416%
COc1ccccc1CC(=O)N1CCCC1Cn1nc(C)cc1C (stereo not given) | -0.08796%
Cc1nc(N2CCCC2)nc2c1CCN(C(=O)C1CCCCC1)CC2 | 26.48%
COCCN1CC2(CCCN(C(=O)CCCc3cccs3)C2)CCC1=O (stereo not given) | -43.99%
Cc1ccc(S(=O)(=O)c2ncccc2CN2CCOCC2)cc1 | 12.4%
O=C(C1CCN(c2ccnc3ccc(Br)cc23)CC1)N1CCOCC1 | -7.175% and -27.91%
CCN(CC)Cc1cc(C(=O)N2CCCC(O)(CO)C2)c(C)o1 (stereo not given) | 12.16% and 0.7747%
Cc1cnc(NC(C)Cc2cccnc2)nc1N(C)C (stereo not given) | 16.59%
CC(C(=O)Nc1ccnn1C(C)C)N1CCN(Cc2ccon2)CC1 (stereo not given) | -17.09%
O[C@@H]1C[C@@H](c2nc(-c3ccccc3)no2)N(C2CCOCC2)C1 | 10.43% and 3.275%
CCn1cc2c(n1)C(COCC1CC1)CN(c1ccc(C)nn1)C2 (stereo not given) | -1.449% and 17.87%
COc1nc2c(cc1C(=O)N1CCCC1c1ccccn1)CCC2 (stereo not given) | -23.42%
CC(C)(C)NC(=O)c1ccn(COc2ccccc2Cl)n1 | -17.08%
CC(O)CN1CCN(C(=O)c2ccc(N(C)C)nn2)CC1 (stereo not given) | 19.65%
COc1cc2nc(C)n(CC(=O)NCC(C)C)c(=O)c2cc1OC | -31.04%
N#Cc1ccc(CN(CC(N)=O)Cc2cccc(F)c2)cc1 | 10.1%
c1coc(-c2nc(CN3CCn4c(nnc4C4CC4)C3)cs2)c1 | 5.762%
CC[C@@H](C)[C@@H](N)C(=O)Nc1cccc(-c2cnc(N(C)C)nc2)c1 | 36.45%
c1ncn(CC2CN(Cc3csc(C4CCCC4)n3)CCO2)n1 (stereo not given) | 14.84%
CC(=O)N1CCC[C@@H](NCc2cccc(F)c2)[C@@H]1c1ccc(C)s1.Cl | 4.944%
O=C(CN1CCNC1=O)NCc1ccc2sccc2c1 | 0.9247%
COCc1nc(CNc2cc(C)nc(-c3ccccc3)n2)no1 | 0.609% and 9.462%
CCN(CC)C(=O)CN1CCCC(c2nc(C)c3c(n2)N(C)CCC3)C1 (stereo not given) | 17.77%
CCOCC1CN(S(C)(=O)=O)Cc2nn(C)cc21 (stereo not given) | -10.86%
CC(=O)c1ccccc1NC(=O)CCN1CCSCC1 | -7.621%
COc1cccc(S(=O)(=O)N2C[C@@H](O)[C@H](N(C)C)C2)c1 | -10.57%
c1cnn(CCNCc2ccc(N3CCCCC3)cc2)c1 | -12.45%
Cc1cccc(CN2CCc3cc(C(=O)O)c(N(C)C)nc3CC2)n1.O=C(O)C(F)(F)F.O=C(O)C(F)(F)F | -1.48%
Cc1ncoc1C(=O)N1CC[C@@H](O)[C@@H](O)[C@H](N2CCC(F)(F)CC2)C1 | 4.411%
Cc1cc(C)n(CC2CCCN2C(=O)c2ccc3c(c2)nnn3C)n1 (stereo not given) | -7.865% and -2.706%
Cc1cc(F)cc(S(=O)(=O)Nc2ccn(CCCC#N)n2)c1 | 19.83%
COc1cccc2cc(CNCc3ccnc(N4CCOCC4)c3)oc12 | -17.66%
COc1ccc(F)c(CN2CCCC3(CCN(S(C)(=O)=O)C3)C2)c1 (stereo not given) | -8.831% and 4.855%
Cc1cc(C)n(CC2CN(CC(=O)NC3CCCC3)CCO2)n1 (stereo not given) | -26.3%
O=C(C1CCC2(CCN(Cc3cccnc3)CC2)CO1)N1CCCC1.O=C(O)C(F)(F)F.O=C(O)C(F)(F)F (stereo not given) | -20.32%
CCCC1(NC(=O)C(c2ccc(F)cc2)N(C)C)CC1 (stereo not given) | 11.24%
C[C@H]1CN(C(=O)c2cccc(F)c2Cl)CCN1S(C)(=O)=O | -9.789%
[H][C@@]12CS(=O)(=O)C[C@]1([H])N(C(=O)c1cc(C(C)C)on1)CCN2CCOC | -11.79% and -15.63%
O=C1CCCN1CCCNCc1cc(O)c2cccc(Cl)c2n1 | 5.222%
CN(Cc1c[nH]nc1-c1ccc(F)cc1F)Cc1nccn1C | -39.1%
CCN1C(=O)CC(c2ccccc2)C12CCN(CC1CCOCC1)CC2.O=C(O)C(F)(F)F (stereo not given) | -6.73%
[H][C@@]12CS(=O)(=O)C[C@]1([H])N(C(=O)CCn1cc(Cl)cn1)CCN2C(=O)CC | -24.67%
COCC1(CNC(=O)Nc2cc(F)ccc2OC)CCCC1 | 14.82% and -15.97%
Cn1nc(C2CNCCO2)cc1CCOc1cccc(C(F)(F)F)c1 (stereo not given) | 12.44%
FC1(F)CCN(Cc2ccncc2)CC12CCN(c1cnccn1)C2.O=C(O)C(F)(F)F.O=C(O)C(F)(F)F.O=C(O)C(F)(F)F (stereo not given) | 14.66%
CC(Cn1cccn1)NCc1csc(COc2ccc(F)cc2)n1 (stereo not given) | 14.67%
CC(CNC(=O)c1c[nH]nn1)Oc1ccccc1Br (stereo not given) | -2.128%
CN(C(=O)Nc1ccccn1)C1CCCN(c2ccccc2)C1=O (stereo not given) | -29.24% and -0.2321%
Cc1csc(CNC(=O)NCC2(c3ccc4c(c3)OCO4)CC2)n1 | 16.28%
Cc1n[nH]c(C)c1NC(=O)CN1CCCC1Cn1cncn1 (stereo not given) | -7.582%
CN(Cc1ccco1)C(=O)CN1C(=O)c2cc(Cl)c(Cl)cc2C1=O | -19.98%
CNC(=O)c1ccc(C2CN(CC(=O)N(C)C)CCO2)nc1 (stereo not given) | 7.776%
COC(=O)CC1c2cccnc2C(=O)N1Cc1ccccc1 (stereo not given) | -7.99%
CO[C@@H]1CCN(Cc2nccs2)C[C@@H]1Cc1ccccc1.O=C(O)C(F)(F)F | 28.81%
COc1ccc([C@@H]2CN(c3cnccn3)C[C@H]2N(C)C)cc1 | -21.7%
O=C(c1ccc(-n2cnnn2)cc1)N1CCCC(n2ccnc2)C1 (stereo not given) | 6.865% and 7.079%
CCN1CCOC(CNc2nccc(C(F)(F)F)n2)C1 (stereo not given) | 10.5%
CN(CC1(CO)CCOCC1)[C@@H]1c2ccccc2C2(CCNCC2)[C@H]1O | -5.949%
CC(NC(=O)NCC1(c2ccc(F)cc2)CCCC1)c1nncn1C (stereo not given) | -13.34%
Cc1ccc(CNCc2nnc3n2CCCC3C(F)(F)F)o1 (stereo not given) | -18.32%
Cc1noc(-c2cccnc2N2CCN(c3cnn(C)c3)CC2)n1 | 10.37%
COCC1CCN(c2nc(C(C)(C)C)nc3c2cnn3C)C1 (stereo not given) | 47.83%
c1cc(-c2noc([C@@H]3CCCN3C3CCC3)n2)cc(N2CCCC2)n1 | 16.72% and -3.07%
CC1CCCCN1CCNC(=O)c1ccn(-c2ccc(F)cc2)n1 (stereo not given) | -10.08%
O=C(c1cscn1)N1CCC2(CCN(S(=O)(=O)c3ccccc3)C2)C1 (stereo not given) | -3.403% and -5.092%
COc1ccc2cc(NC(=O)CCCNc3ncccn3)cnc2c1 | 5.607%
COc1ccc(NC2(C(=O)N3CCn4cncc4C3)CCCC2)cc1 | 3.69% and 10.11%
CCCN1CCCn2c(nc(CNC(=O)c3ccsc3)cc2=O)C1.O=C(O)C(F)(F)F | -1.549% and -17.53%
CN(Cc1cc(C2CC2)on1)C(=O)CN1C(=O)OC(C)(C)C1=O | -11.84% and -2.796%
COCC(=O)N1CCC2(CC1)CC(COC)N(c1ncccn1)C2.O=C(O)C(F)(F)F (stereo not given) | -0.3353% and 4.31%
CCCn1ncc2c(C(=O)Nc3cnn(CC)c3C)cc(C3CC3)nc21 | 52.89%
CCC(CC)c1cc(CNC(=O)N2CCC(n3cncn3)CC2)on1 | 5.687% and 5.155%
Cc1sc2nc(C(F)(F)F)nc(N3CCN(S(C)(=O)=O)CC3)c2c1C | -2.186%
O=C(O)c1cc(-c2cccnc2)cc(S(=O)(=O)NCc2ccccn2)c1 | 0.599%

Repeated from the top, 11 entries:

{"compound": "CCOc1ncccc1-c1cc2c(cc1C(N)=O)OCO2", "percent effect": "-1.19 and -20.85"}
{"compound": "COc1ccc(C2=CCN(C(=O)CN(C)CC(N)=O)CC2)cc1", "percent effect": 5.65}
{"compound": "CS(=O)(=O)c1ccc(Cl)c(C(=O)NCCC2=CCCCC2)c1", "percent effect": -57.15}
{"compound": "CN1CCCN(c2ncnc(N3CCOCC3)c2N)CC1", "percent effect": -9.396}
{"compound": "O=C(O)C(F)(F)F.[H][C@]12CCC[C@@]1(COCc1ccccn1)CN(S(=O)(=O)N(C)C)C2", "percent effect": "-18.43 and -7.423"}
{"compound": "CC1(C)CNC(=O)c2nc(C3CCN(C(=O)C4CC4)CC3)[nH]c2C1", "percent effect": 22.27}
{"compound": "COc1ccc(N2Cc3nc(=O)n(C(C)C)n3C2=O)cc1", "percent effect": -13.18}
{"compound": "Cc1ccc(CN(Cc2ccccn2)C2CC(C)(C)NC(C)(C)C2)s1.O=C(O)CC(O)(CC(=O)O)C(=O)O", "percent effect": 2.068}
{"compound": "Cn1c(CN2CCCC(N3CCNC3=O)C2)cc(=O)n(C)c1=O", "stereo": "stereo not given", "percent effect": 3.081}
{"compound": "Fc1ccc(OC2CCN(Cc3nnc(-c4ccco4)o3)CC2)cc1", "percent effect": "7.472 and 24.1"}
{"compound": "Cn1ccnc1C1CCN(S(=O)(=O)c2ccc3oc(=O)[nH]c3c2)CC1", "percent effect": -18.55}